Measurements reported in PubChem BioAssay AID1259405 (NCATS, 2018).

- Test: 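Knock-downs that lift recombinant protein yield in hamster ovary cells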 (primary screen)
- Cells: Chinese hamster CHO-K1 ovary cells with stable secreted eGFP expression
- Reagent: single siRNA against mouse genes, 0.8 pmol siRNA per well (2 µl of 400 nM stock)
- Timing: 3 days
- Measured: 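Per-well intracellular GFP measured by laser scanning cytometry, plus viability from ATP luminescence, each relative to plate median of non-targeting control wells, in %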
- Scale: GFP, % of control: higher = more GFP per well, higher productivity; viability (ATP), % of control: higher = more viable cells (more ATP)
- Rule for the call: 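a knock-down is called active if GFP reaches 120% or more of non-targeting control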
Here is a random part of about 50,000 deposited reagents. In the full data, about 4,000 (8%) are marked active. 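Mouse siRNA library applied to hamster cells; one well for each siRNA.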 The numbers tell different reagents against one gene apart.

How did the screen score Tsx #1?
GFP, % of control: 70.6; viability (ATP), % of control: 69.5; Call: inactive

What is on record for Tsx #2?
GFP, % of control: 98.1; viability (ATP), % of control: 117; Call: inactive

What did the screen give for Tsx #3?
GFP, % of control: 85.4; viability (ATP), % of control: 60.5; Call: inactive

How did the screen score Nfe2l2 #1?
GFP, % of control: 74; viability (ATP), % of control: 64.4; Call: inactive

How did the screen score Nfe2l2 #2?
GFP, % of control: 52.8; viability (ATP), % of control: 65.2; Call: inactive

What did the screen give for Nfe2l2 #3?
GFP, % of control: 78.6; viability (ATP), % of control: 107; Call: inactive

For Rbks, how do the results read?
GFP, % of control: 58.8; viability (ATP), % of control: 67.8; Call: inactive

Which result is listed for Zmynd10 #1?
GFP, % of control: 75.3; viability (ATP), % of control: 55.9; Call: inactive

With Zmynd10 #2, what does the deposit list?
GFP, % of control: 88.8; viability (ATP), % of control: 73.5; Call: inactive

Which result is listed for Zmynd10 #3?
GFP, % of control: 71.5; viability (ATP), % of control: 60.2; Call: inactive

For Ust #1, what does the deposit list?
GFP, % of control: 76.8; viability (ATP), % of control: 97.1; Call: inactive

What is on record for Ust #2?
GFP, % of control: 84.2; viability (ATP), % of control: 110; Call: inactive

For Ust #3, what does the deposit list?
GFP, % of control: 76.9; viability (ATP), % of control: 122; Call: inactive

How did the screen score Reck #1?
GFP, % of control: 71; viability (ATP), % of control: 62.9; Call: inactive

How did the screen score Reck #2?
GFP, % of control: 81.5; viability (ATP), % of control: 84.1; Call: inactive

With Reck #3, what was measured?
GFP, % of control: 61.2; viability (ATP), % of control: 61.8; Call: inactive

What is on record for Rmc1 #1?
GFP, % of control: 83.3; viability (ATP), % of control: 106; Call: inactive

How did the screen score Rmc1 #2?
GFP, % of control: 66; viability (ATP), % of control: 81.8; Call: inactive

For Rmc1 #3, how do the results read?
GFP, % of control: 80.2; viability (ATP), % of control: 72.9; Call: inactive

Which result is listed for Xk #1?
GFP, % of control: 79.4; viability (ATP), % of control: 103; Call: inactive

For Xk #2, what was measured?
GFP, % of control: 102; viability (ATP), % of control: 79.1; Call: inactive

What is on record for Xk #3?
GFP, % of control: 95.2; viability (ATP), % of control: 78.9; Call: inactive

How did the screen score Gpx1 #1?
GFP, % of control: 119; viability (ATP), % of control: 115; Call: inactive

With Gpx1 #2, what was measured?
GFP, % of control: 35.1; viability (ATP), % of control: 37.9; Call: inactive

Which result is listed for Gpx1 #3?
GFP, % of control: 49.1; viability (ATP), % of control: 42.1; Call: inactive

What did the screen give for Mfn2 #1?
GFP, % of control: 112; viability (ATP), % of control: 90.6; Call: inactive

With Mfn2 #2, what was measured?
GFP, % of control: 24.9; viability (ATP), % of control: 34.7; Call: inactive

What did the screen give for Mfn2 #3?
GFP, % of control: 95.3; viability (ATP), % of control: 84.8; Call: inactive

With Trim3 #1, what does the deposit list?
GFP, % of control: 61.6; viability (ATP), % of control: 59.3; Call: inactive

For Trim3 #2, what does the deposit list?
GFP, % of control: 154; viability (ATP), % of control: 103; Call: active

With Trim3 #3, how do the results read?
GFP, % of control: 84.6; viability (ATP), % of control: 114; Call: inactive

How did the screen score Aarsd1 #1?
GFP, % of control: 146; viability (ATP), % of control: 103; Call: active

With Aarsd1 #2, what was measured?
GFP, % of control: 66.7; viability (ATP), % of control: 70.5; Call: inactive

For Aarsd1 #3, what does the deposit list?
GFP, % of control: 74; viability (ATP), % of control: 59.1; Call: inactive

Already shown: 6 of the entries above.
Ust #3 → GFP, % of control = 76.9; viability (ATP), % of control = 122; Call = inactive
Reck #1 → GFP, % of control = 71; viability (ATP), % of control = 62.9; Call = inactive
Reck #2 → GFP, % of control = 81.5; viability (ATP), % of control = 84.1; Call = inactive
Reck #3 → GFP, % of control = 61.2; viability (ATP), % of control = 61.8; Call = inactive
Rmc1 #1 → GFP, % of control = 83.3; viability (ATP), % of control = 106; Call = inactive
Rmc1 #2 → GFP, % of control = 66; viability (ATP), % of control = 81.8; Call = inactive

The results go on.
What did the screen give for Gdf9 #1?
GFP, % of control: 53.9; viability (ATP), % of control: 72.6; Call: inactive

With Gdf9 #2, what was measured?
GFP, % of control: 25.5; viability (ATP), % of control: 26.1; Call: inactive

What is on record for Gdf9 #3?
GFP, % of control: 88.9; viability (ATP), % of control: 74.2; Call: inactive

What did the screen give for Pbld1 #1?
GFP, % of control: 51.2; viability (ATP), % of control: 34; Call: inactive

What did the screen give for Pbld1 #2?
GFP, % of control: 96.8; viability (ATP), % of control: 80.5; Call: inactive

What is on record for Pbld1 #3?
GFP, % of control: 83.7; viability (ATP), % of control: 85; Call: inactive

What did the screen give for Hacd4 #1?
GFP, % of control: 76.7; viability (ATP), % of control: 71.9; Call: inactive

What did the screen give for Hacd4 #2?
GFP, % of control: 74; viability (ATP), % of control: 86; Call: inactive

What is on record for Hacd4 #3?
GFP, % of control: 132; viability (ATP), % of control: 128; Call: active

For Usb1 #1, how do the results read?
GFP, % of control: 65; viability (ATP), % of control: 62.9; Call: inactive

What did the screen give for Usb1 #2?
GFP, % of control: 58.6; viability (ATP), % of control: 56.9; Call: inactive

What did the screen give for Usb1 #3?
GFP, % of control: 55.7; viability (ATP), % of control: 62.6; Call: inactive

With Ceacam2 #1, what does the deposit list?
GFP, % of control: 64; viability (ATP), % of control: 67; Call: inactive

With Ceacam2 #2, what was measured?
GFP, % of control: 62.7; viability (ATP), % of control: 84; Call: inactive

Which result is listed for Ceacam2 #3?
GFP, % of control: 64; viability (ATP), % of control: 74.7; Call: inactive

What did the screen give for Clptm1l #1?
GFP, % of control: 73.4; viability (ATP), % of control: 62.5; Call: inactive

What is on record for Clptm1l #2?
GFP, % of control: 97.2; viability (ATP), % of control: 89.5; Call: inactive

For Clptm1l #3, how do the results read?
GFP, % of control: 73.1; viability (ATP), % of control: 81.6; Call: inactive
